Measurements as given in article PMC7688965.
These are yes or no findings as the source states them, for the method shown. In cells and extracts the contact can be indirect. A yes stands for co-enrichment or nearness to the bait. Other partners may have been found.

Sequences of proteins named here, by UniProt entry; tags and fusion partners are left off.
UniProt P48741: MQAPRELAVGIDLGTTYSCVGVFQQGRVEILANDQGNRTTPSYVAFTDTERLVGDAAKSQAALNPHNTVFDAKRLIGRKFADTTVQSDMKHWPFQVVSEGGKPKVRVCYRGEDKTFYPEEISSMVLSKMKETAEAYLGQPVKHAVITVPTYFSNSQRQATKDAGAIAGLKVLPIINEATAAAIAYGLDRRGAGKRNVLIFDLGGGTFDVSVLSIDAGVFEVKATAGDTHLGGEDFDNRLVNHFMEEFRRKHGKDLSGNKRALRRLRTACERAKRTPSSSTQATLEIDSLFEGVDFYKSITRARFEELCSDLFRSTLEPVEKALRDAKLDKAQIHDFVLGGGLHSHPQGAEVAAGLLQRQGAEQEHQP
UniProt Q58FF6: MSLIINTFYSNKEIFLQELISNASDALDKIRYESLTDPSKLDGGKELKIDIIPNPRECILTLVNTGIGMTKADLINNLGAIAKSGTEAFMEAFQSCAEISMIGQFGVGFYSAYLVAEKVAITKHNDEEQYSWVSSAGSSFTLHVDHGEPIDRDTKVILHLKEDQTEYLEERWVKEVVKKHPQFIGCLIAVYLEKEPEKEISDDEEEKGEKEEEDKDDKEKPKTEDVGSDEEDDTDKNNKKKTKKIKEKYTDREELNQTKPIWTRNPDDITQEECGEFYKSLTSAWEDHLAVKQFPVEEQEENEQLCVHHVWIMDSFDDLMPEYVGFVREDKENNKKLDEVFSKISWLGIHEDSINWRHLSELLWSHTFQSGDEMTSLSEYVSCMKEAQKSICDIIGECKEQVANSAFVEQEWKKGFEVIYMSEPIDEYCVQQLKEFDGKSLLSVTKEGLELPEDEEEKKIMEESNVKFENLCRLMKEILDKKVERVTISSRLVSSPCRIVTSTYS
UniProt P51665: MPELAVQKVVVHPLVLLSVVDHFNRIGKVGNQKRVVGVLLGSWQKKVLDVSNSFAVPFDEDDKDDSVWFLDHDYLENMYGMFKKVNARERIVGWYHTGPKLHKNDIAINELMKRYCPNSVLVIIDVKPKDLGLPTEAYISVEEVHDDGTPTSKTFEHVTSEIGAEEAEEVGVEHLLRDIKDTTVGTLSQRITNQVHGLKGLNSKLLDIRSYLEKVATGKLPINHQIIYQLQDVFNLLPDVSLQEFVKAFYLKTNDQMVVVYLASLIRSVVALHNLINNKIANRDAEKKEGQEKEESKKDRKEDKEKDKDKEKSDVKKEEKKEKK

Molecular target: HA-tagged WT Hop (human) (UniProt P31948)
Test: affinity purification with mass spectrometry; HA-IP of HA-tagged WT Hop or TPR double mutant exogenously overexpressed in HEK293T Hop KO1 cells; label-free LC/MS-MS, iBAQ normalised on the abundance of Hop; compared with control IP and with the TPR double mutant

Substance: HSP7 (from UniProt P48741 1-367)
- binding: binds

Substance: HSP90AB4P (from UniProt Q58FF6 1-505)
- binding: binds

Substance: PSMD7 (from UniProt P51665 1-324)
- binding: binds

Substance: PSMD14 (from UniProt O00487 1-310)
- binding: binds
